# Patent US20240319146 (published 2024)
# Assay: general procedure: solution-phase peptide synthesis; liquid-phase carriers (Tag): B-STag, D-STag, X-STag; COMU, DIEPA
# Details: whole synthesis, Analysis Condition 1, scale of the general procedure 1.0 mmol
Substance,crude HPLC purity (run 1) [%],crude HPLC purity (run 2) [%],crude HPLC purity [%]
H-Asp-Ala-Asn-Cys-Glu-OH,80.1,74.2,–
H-Gln-Trp-Glu-Arg-Thr-NH2,71.0,82.0,–
H-Ser-Met-Ile-Leu-Glu-OH,–,–,62.3
